{"source": "the supplement of paper PMC5949888", "note": "Most values lie at the floor of the assay. Slopes are relative: functional sequences can read slightly below zero.", "data": [{"test_system": "Saccharomyces cerevisiae PS128 hsf1 delta, HSF1(1-493) fusion", "assay": "growth estimate (transactivation domain function in HSF1 fusion, heat-shock survival) (a.u. (slope of normalised read count over time)); higher = stronger growth at 37°C, i.e. more transactivation activity", "conditions": "library: random library", "values": [{"substance": "VLAATIG", "growth estimate": "< -0.25"}, {"substance": "VLAGLTASWCNWLISIAFKR", "growth estimate": "< -0.25"}, {"substance": "VLARA", "growth estimate": "< -0.25"}, {"substance": "VLASQDDIVGPRSARPVAIS", "growth estimate": "< -0.25"}, {"substance": "VLATR", "growth estimate": "< -0.25"}, {"substance": "VLCEAVPAKEGQSCRGPTMP", "growth estimate": "< -0.25"}, {"substance": "VLD", "growth estimate": "< -0.25"}, {"substance": "VLFAVTVDHRVLVASRITSS", "growth estimate": "< -0.25"}, {"substance": "VLFDGRVGSV", "growth estimate": "< -0.25"}, {"substance": "VLFPPIP", "growth estimate": "< -0.25"}, {"substance": "VLGCFTFFSVDLHNEMPART", "growth estimate": "< -0.25"}, {"substance": "VLGGRNCHPRQLQPVAGKNV", "growth estimate": "< -0.25"}, {"substance": "VLGIHGSEPCPGRPGTSRAV", "growth estimate": "< -0.25"}, {"substance": "VLGKDRMPAHIKKRRVGMHV", "growth estimate": "< -0.25"}, {"substance": "VLGWLV", "growth estimate": "< -0.25"}, {"substance": "VLIKRDT", "growth estimate": "< -0.25"}, {"substance": "VLINSRRSSVPNQDHARISR", "growth estimate": "< -0.25"}, {"substance": "VLINVADGI", "growth estimate": "< -0.25"}, {"substance": "VLIYDCS", "growth estimate": "< -0.25"}, {"substance": "VLKA", "growth estimate": -0.176}, {"substance": "VLKIIDEITVRGDWCVVQGS", "growth estimate": "< -0.25"}, {"substance": "VLKPGGGG", "growth estimate": "< -0.25"}, {"substance": "VLKTRLLLRDDDGIWCQSGH", "growth estimate": "< -0.25"}, {"substance": "VLLDSHPWYFAGDNNSGTYG", "growth estimate": "< -0.25"}, {"substance": "VLLDWRKG", "growth estimate": "< -0.25"}, {"substance": "VLLGFRKHVLLFPGGLVTRS", "growth estimate": "< -0.25"}, {"substance": "VLLGWGSSPSISPPRKGDPV", "growth estimate": "< -0.25"}, {"substance": "VLLIARSSFQKGVSRP", "growth estimate": "< -0.25"}, {"substance": "VLLLNSSRIGQFFVF", "growth estimate": "< -0.25"}, {"substance": "VLLRLATSARHASTKSNVGR", "growth estimate": "< -0.25"}, {"substance": "VLLVKARGRCWSEKLGSL", "growth estimate": "< -0.25"}, {"substance": "VLLVSPAVSPLYPPVTAFMH", "growth estimate": "< -0.25"}, {"substance": "VLMAKCLFTRMGGPF", "growth estimate": "< -0.25"}, {"substance": "VLMRGTVSLLSQDASQSVAE", "growth estimate": "< -0.25"}, {"substance": "VLMRLLGVRASMKRECHRNA", "growth estimate": "< -0.25"}, {"substance": "VLPFGTASFVVTRN", "growth estimate": "< -0.25"}, {"substance": "VLPGCAASGEL", "growth estimate": "< -0.25"}, {"substance": "VLPSMQAPHPQATRNLPMKV", "growth estimate": "< -0.25"}, {"substance": "VLPTAMAVLEGV", "growth estimate": "< -0.25"}, {"substance": "VLPTNLRERKGPIRV", "growth estimate": "< -0.25"}, {"substance": "VLPYFRLAWLNLVTRIVVRL", "growth estimate": "< -0.25"}, {"substance": "VLQVIPSCGFPVQTRTVCQH", "growth estimate": "< -0.25"}, {"substance": "VLREPGK", "growth estimate": "< -0.25"}, {"substance": "VLRIGCRATGGLHSFLNYVG", "growth estimate": "< -0.25"}, {"substance": "VLRNRYAYFWT", "growth estimate": "< -0.25"}, {"substance": "VLRPGDVRDNL", "growth estimate": "< -0.25"}, {"substance": "VLRQGLNITVQNGTKTLPSA", "growth estimate": "< -0.25"}, {"substance": "VLRQLVVTQ", "growth estimate": -0.243}, {"substance": "VLRRGDVIEPR", "growth estimate": "< -0.25"}, {"substance": "VLSARWSVE", "growth estimate": "< -0.25"}, {"substance": "VLSFYALALFLCAIERNVYG", "growth estimate": "< -0.25"}, {"substance": "VLSGCVGEGGMRNAFGYLSC", "growth estimate": "< -0.25"}, {"substance": "VLTDPARRHFGYSVRGSTLS", "growth estimate": "< -0.25"}, {"substance": "VLTRNDNLLVYGVPHLC", "growth estimate": "< -0.25"}, {"substance": "VLVAHVKPQLLGFMYVLTLE", "growth estimate": "< -0.25"}, {"substance": "VLVCTGSGGFELSRVTDAQR", "growth estimate": "< -0.25"}, {"substance": "VLVEH", "growth estimate": "< -0.25"}, {"substance": "VLVGIDVQDKQRVALAIGPP", "growth estimate": -0.246}, {"substance": "VLVLELSPPGTTEWS", "growth estimate": -0.191}, {"substance": "VLVLGEGGRVIPVSYT", "growth estimate": "< -0.25"}, {"substance": "VLVVHIVGRVMLGSYRYYGP", "growth estimate": "< -0.25"}, {"substance": "VLVWFHPETLNTTSCTS", "growth estimate": -0.248}, {"substance": "VLWFTSITETSPLRVDENRS", "growth estimate": "< -0.25"}, {"substance": "VLWVSHVLNVKAVDIENGA", "growth estimate": "< -0.25"}, {"substance": "VLYLITVRAVAMAPA", "growth estimate": "< -0.25"}, {"substance": "VLYLVRLELTRCPVSPHNRA", "growth estimate": "< -0.25"}, {"substance": "VLYVIEQGSS", "growth estimate": "< -0.25"}, {"substance": "VLYYFVNVTWAQVYANQKFE", "growth estimate": "< -0.25"}, {"substance": "VMFEIRGTGRLDVCG", "growth estimate": "< -0.25"}, {"substance": "VMIAVAVGNW", "growth estimate": "< -0.25"}, {"substance": "VMKIQRNSSIATFSQVHGGA", "growth estimate": "< -0.25"}, {"substance": "VMKPSAVCICIRLIRDYFVP", "growth estimate": "< -0.25"}, {"substance": "VML", "growth estimate": "< -0.25"}, {"substance": "VMLAVIWGRLGHPL", "growth estimate": "< -0.25"}, {"substance": "VMLFEWR", "growth estimate": "< -0.25"}, {"substance": "VMP", "growth estimate": "< -0.25"}, {"substance": "VMPSIRSPR", "growth estimate": "< -0.25"}, {"substance": "VMQRVMPSSRRS", "growth estimate": "< -0.25"}, {"substance": "VMRARVEFRRGVNLRVLLRV", "growth estimate": "< -0.25"}, {"substance": "VMRGSQGVGMATIWAANYRS", "growth estimate": "< -0.25"}, {"substance": "VMRSVRDHRWIDRMDIIFHL", "growth estimate": "< -0.25"}, {"substance": "VMRVRLGSGPPIIRLSCKLL", "growth estimate": "< -0.25"}, {"substance": "VMSESAVISSTVKVIRL", "growth estimate": "< -0.25"}, {"substance": "VMSQDYGTR", "growth estimate": "< -0.25"}, {"substance": "VMSQHYPSRPRMRHGDPTAT", "growth estimate": "< -0.25"}, {"substance": "VMSTGRKSTGTGWLLGSQCG", "growth estimate": -0.232}, {"substance": "VMTAQEGLVEGSIGWSIPNS", "growth estimate": -0.231}, {"substance": "VMVRSERH", "growth estimate": "< -0.25"}, {"substance": "VMVVRVFKYGNITGCGSKNP", "growth estimate": "< -0.25"}, {"substance": "VNCLYTEKLRVSAGSPGKRA", "growth estimate": "< -0.25"}, {"substance": "VNGGGNKTPVSTLGSPRCPH", "growth estimate": "< -0.25"}, {"substance": "VNGLSKALRVPCASQTALVK", "growth estimate": "< -0.25"}, {"substance": "VNKYKLGRRGLKEEPGVGGP", "growth estimate": "< -0.25"}, {"substance": "VNLQF", "growth estimate": "< -0.25"}, {"substance": "VNLVDRFKYTDLKSALRIQY", "growth estimate": -0.208}, {"substance": "VNPIHEDQHGIAGVYGPSGH", "growth estimate": "< -0.25"}, {"substance": "VNPVQPVVRVGIRRQFEVQ", "growth estimate": "< -0.25"}, {"substance": "VNQAWIMIIDIVNASGLLD", "growth estimate": "< -0.25"}]}]}
